# Reference: the supplement of paper PMC8728848
# This is one part of the list.
# B1: DCIR1 (Mus musculus), Q9QZ15 (protein)
# chain: MASEITYAEVKFKNESNSLHTYSESPAAPREKPIRDLRKPGSPSLLLTSLMLLLLLLAITFLVAFIIYFQKYSQLLEEKKAAKNIMHNELNCTKSVSPMEDKVWSCCPKDWRLFGSHCYLVPTVSSSASWNKSEENCSRMGAHLVVIQSQEEQDFITGILDTHAAYFIGLWDTGHRQWQWVDQTPYEESITFWHNGEPSSGNEKCATIIYRWKTGWGWNDISCSLKQKSVCQMKKINL
# Columns and labels:
# Test in all cases: glycan array binding signal (z-score within array); higher = stronger binding
# Conditions in all cases: glycan notation: IUPAC condensed, linker removed
# [1] = target: Glc(b1-4)Glc
# How it was run: (§1)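 Arrays were curated from the Consortium for Functional Glycomics database, 3228 in total, and kept only where the protein sequence was available. Binding is expressed as a within-array Z-score. This score was averaged across arrays of the same protein sequence at different concentrations or buffers and across linkers, and negative values can be read as non-binding.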
# [2] = target: Glc(b1-6)Glc
# How it was run: as §1
# [3] = target: GlcA(b1-3)Gal
# How it was run: as §1
# [4] = target: GlcA(b1-3)GlcNAc
# How it was run: as §1
# [5] = target: GlcA(b1-6)Gal
# How it was run: as §1
# [6] = target: GlcA3S(b1-3)Gal(b1-4)GlcNAc(b1-2)Man
# How it was run: as §1
# [7] = target: GlcA3S(b1-3)Gal(b1-4)GlcNAc(b1-3)Gal(b1-4)Glc
# How it was run: as §1
# [8] = target: GlcNAc(a1-3)Gal(b1-4)GlcNAc
# How it was run: as §1
# [9] = target: GlcNAc(a1-4)Gal(b1-3)GlcNAc
# How it was run: as §1
# [10] = target: GlcNAc(a1-4)Gal(b1-4)GalNAc
# How it was run: as §1
# [11] = target: GlcNAc(a1-4)Gal(b1-4)GlcNAc
# How it was run: as §1
# [12] = target: GlcNAc(a1-4)Gal(b1-4)GlcNAc(b1-3)Gal(b1-4)Glc
# How it was run: as §1
# [13] = target: GlcNAc(a1-4)Gal(b1-4)GlcNAc(b1-3)Gal(b1-4)GlcNAc
# How it was run: as §1
# [14] = target: GlcNAc(a1-4)Gal(b1-4)GlcNAc(b1-3)Gal(b1-4)GlcNAc(b1-3)Gal(b1-4)GlcNAc
# How it was run: as §1
# [15] = target: GlcNAc(a1-4)Gal(b1-4)GlcNAc(b1-3)Gal(b1-4)[Fuc(a1-3)]GlcNAc(b1-3)Gal(b1-4)[Fuc(a1-3)]GlcNAc
# How it was run: as §1
# [16] = target: GlcNAc(a1-6)Gal(b1-4)GlcNAc
# How it was run: as §1
# [17] = target: GlcNAc(b1-2)Gal(b1-3)GalNAc
# How it was run: as §1
# [18] = target: GlcNAc(b1-2)Man(a1-3)[GlcNAc(b1-2)Man(a1-6)]Man(b1-4)GlcNAc(b1-4)GlcNAc
# How it was run: as §1
# [19] = target: GlcNAc(b1-2)Man(a1-3)[GlcNAc(b1-2)Man(a1-6)]Man(b1-4)GlcNAc(b1-4)[Fuc(a1-6)]GlcNAc
# How it was run: as §1
# [20] = target: GlcNAc(b1-2)Man(a1-3)[GlcNAc(b1-4)][GlcNAc(b1-2)Man(a1-6)]Man(b1-4)GlcNAc(b1-4)GlcNAc
# How it was run: as §1
# [21] = target: GlcNAc(b1-2)Man(a1-3)[GlcNAc(b1-4)][GlcNAc(b1-2)Man(a1-6)]Man(b1-4)GlcNAc(b1-4)[Fuc(a1-6)]GlcNAc
# How it was run: as §1
# [22] = target: GlcNAc(b1-2)[GlcNAc(b1-4)]Man(a1-3)[GlcNAc(b1-2)Man(a1-6)]Man(b1-4)GlcNAc(b1-4)GlcNAc
# How it was run: as §1
# [23] = target: GlcNAc(b1-2)[GlcNAc(b1-4)]Man(a1-3)[GlcNAc(b1-4)][GlcNAc(b1-2)Man(a1-6)]Man(b1-4)GlcNAc(b1-4)GlcNAc
# How it was run: as §1
# [24] = target: GlcNAc(b1-2)[GlcNAc(b1-4)]Man(a1-3)[GlcNAc(b1-4)][GlcNAc(b1-2)[GlcNAc(b1-6)]Man(a1-6)]Man(b1-4)GlcNAc(b1-4)GlcNAc
# How it was run: as §1
# [25] = target: GlcNAc(b1-2)[GlcNAc(b1-4)]Man(a1-3)[GlcNAc(b1-4)][GlcNAc(b1-2)[GlcNAc(b1-6)]Man(a1-6)]Man(b1-4)GlcNAc(b1-4)[Fuc(a1-6)]GlcNAc
# How it was run: as §1
# [26] = target: GlcNAc(b1-2)[GlcNAc(b1-6)]Man(a1-6)[GlcNAc(b1-2)Man(a1-3)]Man(b1-4)GlcNAc(b1-4)GlcNAc
# How it was run: as §1
# [27] = target: GlcNAc(b1-2)[GlcNAc(b1-6)]Man(a1-6)[GlcNAc(b1-2)Man(a1-3)]Man(b1-4)GlcNAc(b1-4)[Fuc(a1-6)]GlcNAc
# How it was run: as §1
# [28] = target: GlcNAc(b1-2)[GlcNAc(b1-6)]Man(a1-6)[GlcNAc(b1-4)][GlcNAc(b1-2)Man(a1-3)]Man(b1-4)GlcNAc(b1-4)GlcNAc
# How it was run: as §1
# [29] = target: GlcNAc(b1-3)Fuc
# How it was run: as §1
# [30] = target: GlcNAc(b1-3)Gal
# How it was run: as §1
# [31] = target: GlcNAc(b1-3)Gal(b1-3)GalNAc
# How it was run: as §1
# [32] = target: GlcNAc(b1-3)Gal(b1-4)Glc
# How it was run: as §1
# [33] = target: GlcNAc(b1-3)Gal(b1-4)GlcNAc
# How it was run: as §1
# [34] = target: GlcNAc(b1-3)Gal(b1-4)GlcNAc(b1-2)Man(a1-3)[GlcNAc(b1-3)Gal(b1-4)GlcNAc(b1-2)Man(a1-6)]Man(b1-4)GlcNAc(b1-4)GlcNAc
# How it was run: as §1
# [35] = target: GlcNAc(b1-3)Gal(b1-4)GlcNAc(b1-2)Man(a1-3)[GlcNAc(b1-3)Gal(b1-4)GlcNAc(b1-2)Man(a1-6)]Man(b1-4)GlcNAc(b1-4)[Fuc(a1-6)]GlcNAc
# How it was run: as §1
# [36] = target: GlcNAc(b1-3)Gal(b1-4)GlcNAc(b1-2)[GlcNAc(b1-3)Gal(b1-4)GlcNAc(b1-6)]Man(a1-6)[GlcNAc(b1-3)Gal(b1-4)GlcNAc(b1-2)Man(a1-3)]Man(b1-4)GlcNAc(b1-4)GlcNAc
# How it was run: as §1
# [37] = target: GlcNAc(b1-3)Gal(b1-4)GlcNAc(b1-3)Gal(b1-4)GlcNAc
# How it was run: as §1
# [38] = target: GlcNAc(b1-3)Gal(b1-4)GlcNAc(b1-3)Gal(b1-4)GlcNAc(b1-2)Man(a1-3)[GlcNAc(b1-3)Gal(b1-4)GlcNAc(b1-3)Gal(b1-4)GlcNAc(b1-2)Man(a1-6)]Man(b1-4)GlcNAc(b1-4)GlcNAc
# How it was run: as §1
# [39] = target: GlcNAc(b1-3)Gal(b1-4)GlcNAc(b1-3)Gal(b1-4)GlcNAc(b1-2)Man(a1-3)[GlcNAc(b1-3)Gal(b1-4)GlcNAc(b1-3)Gal(b1-4)GlcNAc(b1-2)Man(a1-6)]Man(b1-4)GlcNAc(b1-4)[Fuc(a1-6)]GlcNAc
# How it was run: as §1
# [40] = target: GlcNAc(b1-3)Gal(b1-4)GlcNAc(b1-3)Gal(b1-4)GlcNAc(b1-2)[GlcNAc(b1-3)Gal(b1-4)GlcNAc(b1-3)Gal(b1-4)GlcNAc(b1-6)]Man(a1-6)[GlcNAc(b1-3)Gal(b1-4)GlcNAc(b1-3)Gal(b1-4)GlcNAc(b1-2)Man(a1-3)]Man(b1-4)GlcNAc(b1-4)[Fuc(a1-6)]GlcNAc
# How it was run: as §1
# [41] = target: GlcNAc(b1-3)Gal(b1-4)GlcNAc(b1-3)Gal(b1-4)GlcNAc(b1-3)Gal(b1-4)GlcNAc(b1-2)Man(a1-3)[GlcNAc(b1-3)Gal(b1-4)GlcNAc(b1-3)Gal(b1-4)GlcNAc(b1-3)Gal(b1-4)GlcNAc(b1-2)Man(a1-6)]Man(b1-4)GlcNAc(b1-4)GlcNAc
# How it was run: as §1
# [42] = target: GlcNAc(b1-3)Gal(b1-4)GlcNAc(b1-3)Gal(b1-4)GlcNAc(b1-3)Gal(b1-4)GlcNAc(b1-2)Man(a1-3)[GlcNAc(b1-3)Gal(b1-4)GlcNAc(b1-3)Gal(b1-4)GlcNAc(b1-3)Gal(b1-4)GlcNAc(b1-2)Man(a1-6)]Man(b1-4)GlcNAc(b1-4)[Fuc(a1-6)]GlcNAc
# How it was run: as §1
# [43] = target: GlcNAc(b1-3)Gal(b1-4)GlcNAc(b1-3)Gal(b1-4)GlcNAc(b1-3)Gal(b1-4)GlcNAc(b1-2)[GlcNAc(b1-3)Gal(b1-4)GlcNAc(b1-3)Gal(b1-4)GlcNAc(b1-3)Gal(b1-4)GlcNAc(b1-6)]Man(a1-6)[GlcNAc(b1-3)Gal(b1-4)GlcNAc(b1-3)Gal(b1-4)GlcNAc(b1-3)Gal(b1-4)GlcNAc(b1-2)Man(a1-3)]Man(b1-4)GlcNAc(b1-4)[Fuc(a1-6)]GlcNAc
# How it was run: as §1
# [44] = target: GlcNAc(b1-3)Gal(b1-4)GlcNAc(b1-3)Gal(b1-4)GlcNAc(b1-3)Gal(b1-4)GlcNAc(b1-3)Gal(b1-4)GlcNAc(b1-2)Man(a1-3)[GlcNAc(b1-3)Gal(b1-4)GlcNAc(b1-3)Gal(b1-4)GlcNAc(b1-3)Gal(b1-4)GlcNAc(b1-3)Gal(b1-4)GlcNAc(b1-2)Man(a1-6)]Man(b1-4)GlcNAc(b1-4)GlcNAc
# How it was run: as §1
# [45] = target: GlcNAc(b1-3)Gal(b1-4)GlcNAc(b1-3)Gal(b1-4)GlcNAc(b1-3)Gal(b1-4)GlcNAc(b1-3)Gal(b1-4)GlcNAc(b1-2)Man(a1-3)[GlcNAc(b1-3)Gal(b1-4)GlcNAc(b1-3)Gal(b1-4)GlcNAc(b1-3)Gal(b1-4)GlcNAc(b1-3)Gal(b1-4)GlcNAc(b1-2)Man(a1-6)]Man(b1-4)GlcNAc(b1-4)[Fuc(a1-6)]GlcNAc
# How it was run: as §1
binder,measurement,setting,value
B1,glycan array binding signal (z-score),[1],0.278
same,glycan array binding signal (z-score),[2],0.81
same,glycan array binding signal (z-score),[3],0.644
same,glycan array binding signal (z-score),[4],-0.507
same,glycan array binding signal (z-score),[5],0.627
same,glycan array binding signal (z-score),[6],-0.599
same,glycan array binding signal (z-score),[7],-0.974
same,glycan array binding signal (z-score),[8],-0.488
same,glycan array binding signal (z-score),[9],-0.108
same,glycan array binding signal (z-score),[10],1.16
same,glycan array binding signal (z-score),[11],-0.438
same,glycan array binding signal (z-score),[12],0.014
same,glycan array binding signal (z-score),[13],-1.06
same,glycan array binding signal (z-score),[14],-1.1
same,glycan array binding signal (z-score),[15],0.243
same,glycan array binding signal (z-score),[16],-0.776
same,glycan array binding signal (z-score),[17],0.053
same,glycan array binding signal (z-score),[18],-0.579
same,glycan array binding signal (z-score),[19],-0.299
same,glycan array binding signal (z-score),[20],-0.773
same,glycan array binding signal (z-score),[21],-0.538
same,glycan array binding signal (z-score),[22],-0.791
same,glycan array binding signal (z-score),[23],-0.101
same,glycan array binding signal (z-score),[24],-1.03
same,glycan array binding signal (z-score),[25],-0.971
same,glycan array binding signal (z-score),[26],-0.651
same,glycan array binding signal (z-score),[27],-0.244
same,glycan array binding signal (z-score),[28],-0.4
same,glycan array binding signal (z-score),[29],-0.74
same,glycan array binding signal (z-score),[30],-0.363
same,glycan array binding signal (z-score),[31],-0.743
same,glycan array binding signal (z-score),[32],-0.965
same,glycan array binding signal (z-score),[33],-0.87
same,glycan array binding signal (z-score),[34],0.294
same,glycan array binding signal (z-score),[35],0.199
same,glycan array binding signal (z-score),[36],-0.372
same,glycan array binding signal (z-score),[37],-0.979
same,glycan array binding signal (z-score),[38],0.855
same,glycan array binding signal (z-score),[39],-0.898
same,glycan array binding signal (z-score),[40],-0.77
same,glycan array binding signal (z-score),[41],0.444
same,glycan array binding signal (z-score),[42],-0.473
same,glycan array binding signal (z-score),[43],-0.73
same,glycan array binding signal (z-score),[44],0.307
same,glycan array binding signal (z-score),[45],-1.03

# Some of the entries so far, as tab-separated lines:
binder	measurement	setting	value
B1	glycan array binding signal (z-score)	[8]	-0.488
same	glycan array binding signal (z-score)	[9]	-0.108
same	glycan array binding signal (z-score)	[10]	1.16
same	glycan array binding signal (z-score)	[11]	-0.438
